According to the supplement of paper PMC10849652:
This is one part of the list.

Sequences of proteins named here, by UniProt entry; tags and fusion partners are left off. A change or cut given only in a name is not applied to a line headed by its entry.
UniProt Q9UBU8, whole entry, looked up: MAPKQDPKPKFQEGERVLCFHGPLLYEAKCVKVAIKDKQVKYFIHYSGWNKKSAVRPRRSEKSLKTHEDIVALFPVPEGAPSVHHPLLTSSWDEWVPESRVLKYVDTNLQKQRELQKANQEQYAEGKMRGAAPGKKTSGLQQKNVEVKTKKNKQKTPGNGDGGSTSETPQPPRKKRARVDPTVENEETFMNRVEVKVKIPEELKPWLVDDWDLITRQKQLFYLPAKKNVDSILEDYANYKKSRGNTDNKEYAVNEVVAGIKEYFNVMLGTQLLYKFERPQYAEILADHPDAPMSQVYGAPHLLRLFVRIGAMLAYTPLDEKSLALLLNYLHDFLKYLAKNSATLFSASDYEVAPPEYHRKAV
UniProt Q99797: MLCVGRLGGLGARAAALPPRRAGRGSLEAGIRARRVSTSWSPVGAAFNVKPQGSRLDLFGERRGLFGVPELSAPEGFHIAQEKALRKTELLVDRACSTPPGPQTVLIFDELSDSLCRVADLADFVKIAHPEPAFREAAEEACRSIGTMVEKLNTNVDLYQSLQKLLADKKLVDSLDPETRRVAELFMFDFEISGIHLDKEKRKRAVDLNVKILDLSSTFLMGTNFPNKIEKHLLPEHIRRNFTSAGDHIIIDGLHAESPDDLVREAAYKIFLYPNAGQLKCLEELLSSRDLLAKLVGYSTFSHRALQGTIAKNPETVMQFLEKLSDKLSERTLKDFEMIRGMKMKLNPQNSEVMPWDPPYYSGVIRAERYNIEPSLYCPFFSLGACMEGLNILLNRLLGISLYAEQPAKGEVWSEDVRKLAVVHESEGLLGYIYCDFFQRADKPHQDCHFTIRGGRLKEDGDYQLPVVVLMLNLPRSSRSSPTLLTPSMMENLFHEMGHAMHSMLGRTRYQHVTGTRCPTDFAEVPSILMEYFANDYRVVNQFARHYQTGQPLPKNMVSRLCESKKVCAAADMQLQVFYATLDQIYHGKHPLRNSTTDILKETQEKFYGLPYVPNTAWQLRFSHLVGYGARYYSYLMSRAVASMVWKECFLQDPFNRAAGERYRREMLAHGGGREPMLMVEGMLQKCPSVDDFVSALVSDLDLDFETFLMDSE
UniProt Q96PC5: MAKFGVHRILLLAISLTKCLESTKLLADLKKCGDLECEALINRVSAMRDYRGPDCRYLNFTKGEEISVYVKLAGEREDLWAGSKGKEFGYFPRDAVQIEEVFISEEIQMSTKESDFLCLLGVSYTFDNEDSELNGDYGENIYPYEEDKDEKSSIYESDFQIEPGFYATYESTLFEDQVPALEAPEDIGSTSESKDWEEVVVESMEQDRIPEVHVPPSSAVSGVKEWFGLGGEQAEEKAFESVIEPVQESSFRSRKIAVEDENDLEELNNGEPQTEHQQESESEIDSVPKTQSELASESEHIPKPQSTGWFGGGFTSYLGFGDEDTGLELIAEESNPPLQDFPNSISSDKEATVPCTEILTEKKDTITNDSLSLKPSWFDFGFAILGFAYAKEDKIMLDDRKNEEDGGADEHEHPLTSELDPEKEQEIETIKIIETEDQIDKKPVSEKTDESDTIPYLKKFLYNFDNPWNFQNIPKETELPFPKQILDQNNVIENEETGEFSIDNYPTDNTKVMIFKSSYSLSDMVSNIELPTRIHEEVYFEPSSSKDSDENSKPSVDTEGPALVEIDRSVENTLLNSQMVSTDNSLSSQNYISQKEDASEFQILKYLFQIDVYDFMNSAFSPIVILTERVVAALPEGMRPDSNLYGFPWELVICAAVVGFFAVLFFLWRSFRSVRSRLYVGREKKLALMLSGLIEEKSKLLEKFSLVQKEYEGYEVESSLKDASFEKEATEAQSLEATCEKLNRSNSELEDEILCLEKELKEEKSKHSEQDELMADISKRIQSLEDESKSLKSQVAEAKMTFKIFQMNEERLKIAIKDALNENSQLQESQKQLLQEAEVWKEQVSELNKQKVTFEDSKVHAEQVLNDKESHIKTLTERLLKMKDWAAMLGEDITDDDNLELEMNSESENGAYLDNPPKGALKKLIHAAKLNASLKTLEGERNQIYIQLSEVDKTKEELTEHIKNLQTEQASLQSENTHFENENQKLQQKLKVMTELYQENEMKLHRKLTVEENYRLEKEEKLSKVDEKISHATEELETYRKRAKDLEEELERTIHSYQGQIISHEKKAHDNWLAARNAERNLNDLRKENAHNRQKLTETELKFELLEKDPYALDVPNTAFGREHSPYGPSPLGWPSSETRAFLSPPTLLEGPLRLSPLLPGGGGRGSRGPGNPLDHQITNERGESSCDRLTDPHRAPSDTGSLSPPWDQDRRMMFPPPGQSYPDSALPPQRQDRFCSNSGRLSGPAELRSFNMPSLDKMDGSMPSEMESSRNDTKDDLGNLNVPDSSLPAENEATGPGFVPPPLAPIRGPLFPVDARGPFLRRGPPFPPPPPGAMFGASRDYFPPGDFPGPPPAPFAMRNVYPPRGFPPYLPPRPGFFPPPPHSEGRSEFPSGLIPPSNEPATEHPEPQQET
UniProt Q8IWI9: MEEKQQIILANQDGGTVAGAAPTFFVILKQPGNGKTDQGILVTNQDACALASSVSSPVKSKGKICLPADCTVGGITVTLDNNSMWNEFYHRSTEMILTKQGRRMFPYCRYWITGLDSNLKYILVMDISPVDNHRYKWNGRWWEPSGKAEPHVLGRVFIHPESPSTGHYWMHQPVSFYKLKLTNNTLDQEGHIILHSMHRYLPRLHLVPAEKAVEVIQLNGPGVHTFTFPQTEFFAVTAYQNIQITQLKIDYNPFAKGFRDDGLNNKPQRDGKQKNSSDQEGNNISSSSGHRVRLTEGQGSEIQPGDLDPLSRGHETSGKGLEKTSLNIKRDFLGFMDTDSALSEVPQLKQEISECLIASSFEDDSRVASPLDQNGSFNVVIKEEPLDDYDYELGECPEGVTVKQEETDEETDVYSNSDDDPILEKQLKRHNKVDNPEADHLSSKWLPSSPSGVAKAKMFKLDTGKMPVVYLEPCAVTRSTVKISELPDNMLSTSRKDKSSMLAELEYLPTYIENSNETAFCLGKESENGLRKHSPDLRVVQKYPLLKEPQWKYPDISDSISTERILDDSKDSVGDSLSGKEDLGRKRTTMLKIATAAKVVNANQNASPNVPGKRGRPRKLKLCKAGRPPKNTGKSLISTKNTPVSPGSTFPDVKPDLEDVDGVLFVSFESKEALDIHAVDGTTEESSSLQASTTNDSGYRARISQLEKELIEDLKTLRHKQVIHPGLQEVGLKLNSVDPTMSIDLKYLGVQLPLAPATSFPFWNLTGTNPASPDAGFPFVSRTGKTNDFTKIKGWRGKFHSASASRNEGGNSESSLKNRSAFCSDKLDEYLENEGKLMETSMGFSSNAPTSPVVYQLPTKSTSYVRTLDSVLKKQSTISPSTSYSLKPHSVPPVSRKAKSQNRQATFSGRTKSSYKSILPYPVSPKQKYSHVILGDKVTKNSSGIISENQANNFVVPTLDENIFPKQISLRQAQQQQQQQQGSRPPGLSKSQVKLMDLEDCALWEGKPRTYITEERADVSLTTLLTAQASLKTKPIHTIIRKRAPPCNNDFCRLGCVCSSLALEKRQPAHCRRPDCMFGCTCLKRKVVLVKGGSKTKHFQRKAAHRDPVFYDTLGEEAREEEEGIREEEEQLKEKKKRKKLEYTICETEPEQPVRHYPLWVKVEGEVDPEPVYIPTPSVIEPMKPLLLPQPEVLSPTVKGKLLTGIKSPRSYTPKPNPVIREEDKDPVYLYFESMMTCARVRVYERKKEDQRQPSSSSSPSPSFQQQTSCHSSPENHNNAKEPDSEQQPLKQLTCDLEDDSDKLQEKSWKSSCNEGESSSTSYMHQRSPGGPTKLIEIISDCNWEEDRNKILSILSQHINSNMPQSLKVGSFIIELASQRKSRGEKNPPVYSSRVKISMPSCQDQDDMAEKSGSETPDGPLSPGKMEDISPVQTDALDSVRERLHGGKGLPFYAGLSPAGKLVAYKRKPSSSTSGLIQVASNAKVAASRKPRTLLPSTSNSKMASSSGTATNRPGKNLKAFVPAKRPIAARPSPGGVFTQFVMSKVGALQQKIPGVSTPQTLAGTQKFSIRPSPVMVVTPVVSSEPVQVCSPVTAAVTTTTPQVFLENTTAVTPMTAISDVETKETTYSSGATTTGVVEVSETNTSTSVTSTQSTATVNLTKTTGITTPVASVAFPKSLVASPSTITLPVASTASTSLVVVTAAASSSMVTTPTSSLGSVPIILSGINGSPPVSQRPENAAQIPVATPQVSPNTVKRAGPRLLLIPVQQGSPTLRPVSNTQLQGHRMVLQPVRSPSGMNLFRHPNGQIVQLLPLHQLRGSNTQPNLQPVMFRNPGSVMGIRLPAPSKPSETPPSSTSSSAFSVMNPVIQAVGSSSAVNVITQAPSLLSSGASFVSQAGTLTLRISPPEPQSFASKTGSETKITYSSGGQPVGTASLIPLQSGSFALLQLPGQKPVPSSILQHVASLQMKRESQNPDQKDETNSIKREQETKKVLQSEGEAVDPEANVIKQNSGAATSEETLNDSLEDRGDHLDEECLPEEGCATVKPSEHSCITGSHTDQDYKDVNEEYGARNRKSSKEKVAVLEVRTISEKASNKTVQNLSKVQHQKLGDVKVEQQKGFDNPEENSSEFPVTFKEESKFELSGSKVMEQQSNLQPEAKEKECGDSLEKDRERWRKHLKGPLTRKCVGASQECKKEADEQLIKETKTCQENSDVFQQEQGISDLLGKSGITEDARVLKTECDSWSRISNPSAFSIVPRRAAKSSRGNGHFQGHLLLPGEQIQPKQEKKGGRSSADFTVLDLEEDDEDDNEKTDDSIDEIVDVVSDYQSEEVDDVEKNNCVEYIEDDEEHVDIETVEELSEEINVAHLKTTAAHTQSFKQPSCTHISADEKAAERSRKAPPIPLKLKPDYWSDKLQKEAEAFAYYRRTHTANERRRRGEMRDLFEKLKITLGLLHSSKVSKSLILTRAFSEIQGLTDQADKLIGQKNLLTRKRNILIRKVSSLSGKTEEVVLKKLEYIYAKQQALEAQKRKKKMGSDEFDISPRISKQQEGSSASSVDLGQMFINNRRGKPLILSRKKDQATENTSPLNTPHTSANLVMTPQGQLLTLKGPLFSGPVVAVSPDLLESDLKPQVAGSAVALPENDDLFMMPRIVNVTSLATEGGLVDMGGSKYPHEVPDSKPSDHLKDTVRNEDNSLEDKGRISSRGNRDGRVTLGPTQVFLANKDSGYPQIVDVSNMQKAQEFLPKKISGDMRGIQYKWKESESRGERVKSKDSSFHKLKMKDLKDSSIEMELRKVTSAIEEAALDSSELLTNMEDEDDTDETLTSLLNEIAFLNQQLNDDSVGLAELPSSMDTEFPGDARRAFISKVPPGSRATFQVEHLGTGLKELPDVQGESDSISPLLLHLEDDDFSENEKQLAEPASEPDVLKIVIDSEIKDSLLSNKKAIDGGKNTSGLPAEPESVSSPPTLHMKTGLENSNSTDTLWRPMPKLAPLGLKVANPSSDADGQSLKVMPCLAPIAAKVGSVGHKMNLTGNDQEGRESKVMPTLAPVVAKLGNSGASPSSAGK
UniProt Q9NZB8: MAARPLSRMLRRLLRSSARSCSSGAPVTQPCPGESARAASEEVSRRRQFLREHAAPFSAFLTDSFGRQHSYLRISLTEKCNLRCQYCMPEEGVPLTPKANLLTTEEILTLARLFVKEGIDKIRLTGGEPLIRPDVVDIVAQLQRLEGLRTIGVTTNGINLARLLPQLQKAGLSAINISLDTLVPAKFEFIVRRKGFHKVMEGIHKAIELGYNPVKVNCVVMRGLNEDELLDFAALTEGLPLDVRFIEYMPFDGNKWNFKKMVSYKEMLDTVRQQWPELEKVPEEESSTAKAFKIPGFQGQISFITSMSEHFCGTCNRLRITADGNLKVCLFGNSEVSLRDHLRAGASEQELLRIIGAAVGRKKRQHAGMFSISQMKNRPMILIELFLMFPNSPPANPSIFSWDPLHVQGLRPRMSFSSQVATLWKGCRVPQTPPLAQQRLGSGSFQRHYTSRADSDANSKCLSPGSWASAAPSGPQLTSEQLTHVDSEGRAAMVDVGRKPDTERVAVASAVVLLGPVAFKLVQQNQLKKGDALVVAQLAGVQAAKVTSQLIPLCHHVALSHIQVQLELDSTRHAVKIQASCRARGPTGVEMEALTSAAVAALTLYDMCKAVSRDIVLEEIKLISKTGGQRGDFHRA
UniProt Q29983, whole entry, looked up: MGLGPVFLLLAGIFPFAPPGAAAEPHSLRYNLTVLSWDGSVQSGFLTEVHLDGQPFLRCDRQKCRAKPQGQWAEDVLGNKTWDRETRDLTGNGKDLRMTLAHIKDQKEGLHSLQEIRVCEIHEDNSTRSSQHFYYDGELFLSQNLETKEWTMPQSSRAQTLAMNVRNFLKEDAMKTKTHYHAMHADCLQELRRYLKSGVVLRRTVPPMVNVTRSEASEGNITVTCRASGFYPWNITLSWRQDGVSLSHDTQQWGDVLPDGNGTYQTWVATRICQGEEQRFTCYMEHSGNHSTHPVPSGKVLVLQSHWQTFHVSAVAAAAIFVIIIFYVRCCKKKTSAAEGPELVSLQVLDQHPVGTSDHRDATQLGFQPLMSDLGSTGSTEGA

Columns and labels:
Test in all cases: log2 fold change, soluble protein after heating vs DMSO (PISA); higher = thermal stabilisation; K562 lysate, 10 uM; active = over 0.2 and 3.5 SD of the protein, either way, in both replicates (recomputed)
[1] = compound: C=CC(=O)N1CCC[C@@H](n2nc(-c3ccc(Oc4ccccc4)cc3)c3c(N)ncnc32)C1 [ibrutinib]
Outline: (§1)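 Thermal stability, expressed as log-two fold change relative to solvent controls, is given from duplicates. Crude K562 extract in PBS pH 7.4 with 1 mM MgCl2, at 1 mg/mL protein, was treated with 10 μM compound for 30 min and heated in aliquots for 3 min across 48°C-58°C. After pooling, adjustment to 0.5% NP-40 at 4°C and centrifugation at 21,000xg for 90 min, supernatant protein was measured by TMTpro 16plex LC-MS/MS with channel sums equalised.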

[2] = compound: CC(=O)c1cnc2ccc(-c3cc(Cl)c(O)c(Cl)c3)nc2c1N[C@H]1CC[C@H](CN(C)C)CC1
Outline: as §1

[3] = compound: CC(C)(C)Cn1c(N)nc2ccc(-c3[nH]c(C(C)(C)C)nc3-c3ccc(F)cc3)nc21 [ralimetinib]
Outline: as §1

[4] = compound: CC(C)(O)CC(=O)NCCn1ccc2ncnc(Nc3ccc(Oc4cccc(C(F)(F)F)c4)c(Cl)c3)c21
Outline: as §1

[5] = compound: CC(C)C1=C2N=C(C=C(N2N=C1)NCC3=CC=CC=C3)NCCCCCCN
Outline: as §1

[6] = compound: CC1=C(C(CC(=O)N1)C2=CC=C(C=C2)C(F)(F)F)C(=O)NC3=C(C=C4C(=C3)C=NN4)F
Outline: as §1

[7] = compound: CC1=C(C2=C(C=C1)C(=O)C3=CC=CC=C3N2CCCN)C
Outline: as §1

[8] = compound: CC1=C(C=C(C=C1)NC(=O)C2=CC(=CC=C2)C(C)(C)C#N)NC3=CC4=C(C=C3)N=CN(C4=O)C
Outline: as §1

[9] = compound: CC1=C(C=C(C=C1)NC(=O)C2=CC(=CC=C2)N(C)C)NC(=O)C3=CC=C(C=C3)O
Outline: as §1

[10] = compound: CC1=CC=C(C=C1)SC2=C3C=C(SC3=CN=C2)C(=O)N
Outline: as §1

Measured: log2 fold change

MLYCD (UniProt O95822)
inactive: [1] -0.05 | [2] 0.154 | [3] -0.012 | [4] -0.116 | [5] 0.053 | [6] -0.064 | [7] 0.002 | [8] -0.035 | [9] -0.021 | [10] 0.011

MORF4L1 isoform 2 (UniProt Q9UBU8)
inactive: [1] -0.038 | [2] -0.012 | [3] 0.011 | [4] -0.062 | [5] 0.019 | [6] -0.034 | [7] -0.089 | [8] 0.01 | [9] 0.003 | [10] 0.021

MIPEP (UniProt Q99797)
inactive: [1] 0.041 | [2] 0.054 | [3] 0.027 | [4] 0.07 | [5] -0.02 | [6] -0.001 | [7] -0.003 | [8] -0.067 | [9] 0.044 | [10] 0.003

MINPP1 (UniProt Q9UNW1)
inactive: [1] -0.034 | [2] 0.016 | [3] -0.004 | [4] 0.043 | [5] -0.015 | [6] -0.011 | [7] 0.042 | [8] -0.047 | [9] -0.013 | [10] 0.005

MICOS13 (UniProt Q5XKP0)
inactive: [1] -0.083 | [2] -0.002 | [3] 0.091 | [4] -0.139 | [5] -0.1 | [6] 0.047 | [7] -0.001 | [8] 0.055 | [9] 0.136 | [10] 0.019

MICAL1 isoform 4 (UniProt Q8TDZ2)
inactive: [1] 0.026 | [2] -0.026 | [3] -0.002 | [4] 0.023 | [5] 0.036 | [6] -0.034 | [7] 0.028 | [8] 0.008 | [9] -0.001 | [10] -0.044

MIA3 (UniProt Q5JRA6)
inactive: [1] 0.009 | [2] 0.024 | [3] 0.002 | [4] 0.008 | [5] -0.011 | [6] 0.018 | [7] -0.015 | [8] -0.033 | [9] 0.016 | [10] -0.007

MIA2 (UniProt Q96PC5)
inactive: [1] 0.011 | [2] 0.015 | [3] 0.009 | [4] 0.045 | [5] 0.091 | [6] 0.086 | [7] -0.009 | [8] 0.012 | [9] 0.003 | [10] 0.017

MRPL11 (UniProt Q9Y3B7)
inactive: [1] -0.04 | [2] 0 | [3] 0.051 | [4] -0.014 | [5] 0.055 | [6] -0.018 | [7] -0.029 | [8] -0.002 | [9] 0.012 | [10] 0.007

MGA (UniProt Q8IWI9)
inactive: [1] 0.147 | [2] 0.141 | [3] 0.022 | [4] -0.031 | [5] 0.002 | [6] -0.027 | [7] -0.081 | [8] 0.046 | [9] 0.079 | [10] -0.039

MLX (UniProt Q9UH92)
inactive: [1] 0.047 | [2] -0.003 | [3] 0.008 | [4] -0.036 | [5] -0.017 | [6] -0.02 | [7] -0.076 | [8] 0.027 | [9] -0.062 | [10] 0.017

MPLKIP (UniProt Q8TAP9)
inactive: [1] 0.006 | [2] 0.033 | [3] 0.013 | [4] -0.009 | [5] -0.056 | [6] 0.064 | [7] 0.045 | [8] 0.034 | [9] -0.023 | [10] 0.018

MKI67 (UniProt P46013)
inactive: [1] 0.039 | [2] -0.003 | [3] 0.005 | [4] -0.005 | [5] 0.009 | [6] 0.029 | [7] -0.005 | [8] 0.009 | [9] 0.04 | [10] -0.012

MLH1 (UniProt P40692)
inactive: [1] 0.01 | [2] -0.009 | [3] 0.02 | [4] -0.035 | [5] -0.018 | [6] 0.017 | [7] -0.055 | [8] 0.014 | [9] -0.006 | [10] 0.03

MMGT1 (UniProt Q8N4V1)
inactive: [1] 0.003 | [2] -0.004 | [3] 0.059 | [4] 0.041 | [5] -0.016 | [6] 0.003 | [7] -0.069 | [8] 0.014 | [9] -0.021 | [10] 0.013

MOCS2 (UniProt O96007)
inactive: [1] 0.009 | [2] -0.031 | [3] -0.043 | [4] -0.016 | [5] -0.038 | [6] 0.014 | [7] -0.006 | [8] 0.003 | [9] 0.004 | [10] -0.015

MOB2 isoform 3 (UniProt Q70IA6)
inactive: [1] -0.034 | [2] -0.098 | [3] 0.011 | [4] -0.02 | [5] -0.007 | [6] 0.013 | [7] 0.054 | [8] 0.018 | [9] -0.009 | [10] -0.02

MRE11 isoform 3 (UniProt P49959)
inactive: [1] -0.02 | [2] -0.012 | [3] -0.005 | [4] -0.001 | [5] 0.007 | [6] -0.002 | [7] -0.02 | [8] 0.003 | [9] 0.021 | [10] -0.025

MRM3 (UniProt Q9HC36)
inactive: [1] 0.009 | [2] -0.046 | [3] 0 | [4] 0.009 | [5] -0.035 | [6] 0.035 | [7] -0.004 | [8] -0.016 | [9] 0 | [10] -0.015

MOCS1 isoform 8 (UniProt Q9NZB8)
inactive: [1] 0.186 | [2] 0.08 | [3] -0.066 | [4] 0.035 | [5] 0.049 | [6] -0.005 | [7] -0.003 | [8] 0.069 | [9] -0.026 | [10] -0.002

Copied from above (two entries):
MOB2 isoform 3 (UniProt Q70IA6)
inactive: [1] -0.034 | [2] -0.098 | [3] 0.011 | [4] -0.02 | [5] -0.007 | [6] 0.013 | [7] 0.054 | [8] 0.018 | [9] -0.009 | [10] -0.02

MRE11 isoform 3 (UniProt P49959)
inactive: [1] -0.02 | [2] -0.012 | [3] -0.005 | [4] -0.001 | [5] 0.007 | [6] -0.002 | [7] -0.02 | [8] 0.003 | [9] 0.021 | [10] -0.025

Later entries.

MPHOSPH6 (UniProt Q99547)
inactive: [1] 0.002 | [2] -0.014 | [3] 0.001 | [4] 0 | [5] -0.014 | [6] -0.006 | [7] 0.025 | [8] 0.037 | [9] 0.01 | [10] 0.017

MMS19 isoform 8 (UniProt Q96T76)
inactive: [1] -0.023 | [2] -0.011 | [3] 0.022 | [4] -0.02 | [5] -0.041 | [6] 0.006 | [7] -0.018 | [8] 0.013 | [9] 0.055 | [10] 0.004

MGAT2 (UniProt Q10469)
inactive: [1] -0.023 | [2] 0.031 | [3] 0.025 | [4] -0.022 | [5] -0.013 | [6] 0.033 | [7] -0.021 | [8] -0.013 | [9] -0.017 | [10] 0.005

MIF (UniProt P14174)
inactive: [1] 0.101 | [2] -0.057 | [3] -0.002 | [4] 0.01 | [5] 0.003 | [6] -0.095 | [7] 0.009 | [8] -0.004 | [9] -0.019 | [10] 0.049

MRI1 (UniProt Q9BV20)
inactive: [1] -0.008 | [2] -0.031 | [3] 0.012 | [4] -0.039 | [5] -0.021 | [6] 0.002 | [7] -0.018 | [8] 0.048 | [9] 0 | [10] -0.039

MITD1 (UniProt Q8WV92)
inactive: [1] 0.007 | [2] -0.067 | [3] -0.039 | [4] 0.01 | [5] 0.024 | [6] -0.02 | [7] -0.071 | [8] -0.059 | [9] 0.058 | [10] -0.027

MICA (UniProt Q29983)
inactive: [1] 0.077

MPV17L2 (UniProt Q567V2)
inactive: [1] -0.032 | [2] -0.033 | [3] -0.009 | [4] -0.062 | [5] -0.023 | [6] 0.009 | [7] -0.006 | [8] 0.027 | [9] -0.045 | [10] 0.013

MRPL16 (UniProt Q9NX20)
inactive: [1] 0.061 | [2] 0.088 | [3] 0.042 | [4] -0.013 | [5] 0.069 | [6] 0.107 | [7] -0.062 | [8] 0.089 | [9] 0.043 | [10] 0.071

MRFAP1 (UniProt Q9Y605)
inactive: [1] -0.061 | [2] 0.07 | [3] -0.007 | [4] 0.036 | [5] -0.009 | [6] -0.047 | [7] 0.005 | [8] 0.039 | [9] 0.053 | [10] -0.042
